In publication doi:10.1101/2024.03.29.587371:
Results are given in words; binding and its absence hold for the method and conditions named. In cells and extracts the contact can be indirect. Sequences can lack the tags named with a protein.

By UniProt entry, the sequences of proteins in these tests, tags left out.
UniProt O23320: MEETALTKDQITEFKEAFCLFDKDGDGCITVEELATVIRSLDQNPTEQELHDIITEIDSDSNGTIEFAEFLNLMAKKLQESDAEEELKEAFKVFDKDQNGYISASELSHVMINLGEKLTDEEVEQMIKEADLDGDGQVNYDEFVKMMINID
UniProt Q9LIK5: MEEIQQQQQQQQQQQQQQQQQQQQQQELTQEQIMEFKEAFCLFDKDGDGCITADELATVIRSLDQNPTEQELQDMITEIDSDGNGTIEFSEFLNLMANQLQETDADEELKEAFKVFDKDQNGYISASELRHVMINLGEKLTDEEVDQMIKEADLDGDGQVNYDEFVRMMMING

Key:
Test in all cases: split reporter
[1] = molecular target: CLuc-AtCML8 (Arabidopsis thaliana) (UniProt O23320)
[2] = molecular target: T1, CLuc-AtCML42 (Arabidopsis thaliana) (UniProt Q9SVG9)
T1 sequence: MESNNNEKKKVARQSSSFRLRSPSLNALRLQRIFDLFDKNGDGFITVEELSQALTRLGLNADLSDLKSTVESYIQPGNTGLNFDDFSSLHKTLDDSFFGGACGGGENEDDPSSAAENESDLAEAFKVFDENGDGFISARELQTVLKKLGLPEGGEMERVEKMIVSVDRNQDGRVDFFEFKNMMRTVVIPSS

[3] = molecular target: CLuc-AtCML11 (Arabidopsis thaliana) (UniProt Q9LIK5)

Measured: binding

B1: NLuc-AtFBA4 (enzyme, UniProt F4KGQ0 1-393)
chain: MSCFKSKFAGKSYFRRTFHSSIIQFHPQLSILIWHRRYSIIRTYELIANAAYIGTPGKGILAADESTGTIGKRFVSINVENVESNRRALRELLFTTPGALQYISGIILFEETLYQKTASGKLFVDVMKEAGVLPGIKVDKGTVELAGTNGETTTTGLDGLGDRCKKYYEAGARFAKWRAVLKIGNNEPSELAIHENAYGLARYAVICQENGLVPIVEPEILVDGSHDIEKCAYVTERVLAACYKALSDHHVILEGTLLKPNMVTPGSDSGSKVKPEVIAKHTVRALQRTVPAAVPAVVFLSGGQSEEEATVNLNAINQLKGKKPWSLTFSYGRALQQSTLKAWGGKEENVDKAQKAFLARAKANSEATLGGYKGDAQLGEGASESLHVKDYKY
no binding: all assays above
